The target in assay [1] is BicDR^K555A::GFP (Drosophila (endogenous in embryos)). Kind of assay: affinity purification with mass spectrometry; anti-GFP IP from embryo extracts, duplicates; SDS-PAGE, Coomassie; bands found in the BicDR::GFP fraction and not in BicDR^K555A::GFP excised and analysed by MS, with the corresponding slices of the control lanes.
Assay [2] shares this target. Kind of assay: affinity purification with mass spectrometry; anti-GFP IP from embryo extracts, triplicates; proteomic analysis directly on the precipitated fractions; controls BicDR^K555A::GFP and white (untagged).

No constants are given. Whether binding was seen depends on the method and setting. Binding seen in cells or lysates may run through a third protein. A yes stands for co-enrichment or nearness to the bait. Other partners may have been found. A no says only that the protein was not detected with the bait.

B1: EF1γ, endogenous in embryos (protein, UniProt Q9NJH0 1-431)
chain: MVKGTLYTYPENFRAYKALIAAQYSGAQVKVADNFKFGETNKSAEFLKKFPGGKVPAFETAEGQYLSESNAIAYLLANEQLRGGKCPFVQAQVQQWISFADNEIVPASCAWVFPLLGILPQQKNSTAKQEAEAVLQQLNQKLQDATFLAGERITLADIVVFSSLLHLYEYVLEPSVRSAFGNVNRWFVTILNQKQVQAVVKDYKLCEKALVFDPKKYAEFQAKTGAAKPQQQAQQQKQEKKPKEKKEAPKKAAEPAEELDAADEALAAEPKSKDPFDALPKGTFNFDDFKRVYSNEDEAKSIPYFFDKFDAENYSIWFGEYKYNEELSKVFMSCNLITGMFQRLDKMRKAAFASVCLFGEDGNSTISGIWVWRGQDLAFTLSPDWQIDYEVYDWKKLDAKSEETKKLVTQYFSWSGTDKDGRKFNQGKIFK
In the case of B1, in assay [1], the binding result is “no binding”.

B2: Origin recognition complex subunit 6 (protein, UniProt Q9Y1B2 1-257)
chain: MTTLIEQLITKMGLREEPNVLEKTTELVRLLELRSTNVPLQINEYGKIVLCADLASCMIGIAFDKEQALKLSGLRKSQYLNNKRMFEKLLDLNKLASVNDICVQLGLNEVARKAEELMTLFKGVAATEDMGTDTSHPQYATMAVFQACRLLKKKVSKSKLMPFSNLRPSQFQLLEQQWERMIAKHHKESKVPSSTDMEGKLKENQNENIKGHEAKKAHKPPPEDYEIWKARMLAKAQAKLKELEASQSHMDSQLLEA
Regarding B2, the binding entry in assay [1] was “no binding”.

B3: Par-6 (protein, UniProt O97111 1-351)
chain: MSKNKINTTSATAASDTNLIEVKSKFDAEFRRWSFKRNEAEQSFDKFASLIEQLHKLTNIQFLILYIDPRDNDLLPINNDDNFGRALKTARPLLRVIVQRKDDLNEYSGFGTMKPRNLIGSILMGHTPVKTKAPSISIPHDFRQVSAIIDVDIVPETHRRVRLLKHGSDKPLGFYIRDGTSVRVTASGLEKQPGIFISRLVPGGLAESTGLLAVNDEVIEVNGIEVAGKTLDQVTDMMVANSSNLIITVKPANQRTLTSTHRGSFSRNSQLSSGSHHTNNTNTSDEIEHDDQDDIVDLTGVTLDESPTSTSAGNHNHQPPLSSSPSSHHQQAASNASTIMASDVKDGVLHL
Turning to B3, in assay [1], the binding result is given as “no binding”.

B4: Rumi (protein, UniProt Q8T045 21-411)
chain: EDDGLCSADQKSCAQSEPDQINEDEFSFKIRRQIEKANADYKPCSSDPQDSDCSCHANVLKRDLAPYKSTGVTRQMIESSARYGTKYKIYGHRLYRDANCMFPARCEGIEHFLLPLVATLPDMDLIINTRDYPQLNAAWGNAAGGPVFSFSKTKEYRDIMYPAWTFWAGGPATKLHPRGIGRWDQMREKLEKRAAAIPWSQKRSLGFFRGSRTSDERDSLILLSRRNPELVEAQYTKNQGWKSPKDTLDAPAADEVSFEDHCKYKYLFNFRGVAASFRLKHLFLCKSLVFHVGDEWQEFFYDQLKPWVHYVPLKSYPSQQEYEHILSFFKKNDALAQEIAQRGYDFIWEHLRMKDIKCYWRKLLKRYVKLLQYEVKPEDQLIYIGPKKDEL
With B4, the binding result in assay [1] is listed as “no binding”.

B5: RpS17 (protein, UniProt P17704 1-131)
chain: MGRVRTKTVKKAAKVIIEKYYTRLTLDFHTNKRICEEVAIIPTKPLRNKIAGYVTHLMGRLRHSQVRGISIKLQEEERERRDNYVPAVSALEQDIIEVDADTKEMLKLLDFHNIRGLQLTQPNTNNFGRRN
Turning to B5, in assay [2], the binding entry is “no binding”.
